# Data reported in paper PMC3248451.
# Sequences of proteins named here, by UniProt entry; tags and fusion partners are left off.
# UniProt Q14457: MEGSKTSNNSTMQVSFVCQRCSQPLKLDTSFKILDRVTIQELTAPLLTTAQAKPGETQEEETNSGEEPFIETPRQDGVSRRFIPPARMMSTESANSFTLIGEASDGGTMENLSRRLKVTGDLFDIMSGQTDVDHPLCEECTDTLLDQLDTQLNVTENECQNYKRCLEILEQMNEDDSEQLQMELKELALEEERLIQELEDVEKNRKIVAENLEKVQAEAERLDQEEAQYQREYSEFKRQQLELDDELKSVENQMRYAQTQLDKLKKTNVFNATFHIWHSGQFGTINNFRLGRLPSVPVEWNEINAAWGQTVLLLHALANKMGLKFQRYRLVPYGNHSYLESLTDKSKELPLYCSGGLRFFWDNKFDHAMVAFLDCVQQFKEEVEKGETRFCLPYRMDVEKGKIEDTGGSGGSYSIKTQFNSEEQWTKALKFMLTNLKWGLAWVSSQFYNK
# UniProt P10415: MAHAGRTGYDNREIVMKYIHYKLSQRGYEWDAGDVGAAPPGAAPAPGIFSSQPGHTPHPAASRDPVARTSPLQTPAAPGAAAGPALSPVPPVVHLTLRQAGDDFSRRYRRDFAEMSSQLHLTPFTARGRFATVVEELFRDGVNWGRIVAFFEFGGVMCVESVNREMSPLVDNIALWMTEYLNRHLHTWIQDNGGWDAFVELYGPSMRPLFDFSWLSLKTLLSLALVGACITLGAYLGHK
# Results are given in words; binding and its absence hold for the method and conditions named. In cells and extracts the contact can be indirect. Some results given as binding are weak or reduced against the parent protein; the word gives no strength.
# How the values were obtained:
# [1] = biological target: T1, E1B19K, the adenovirus BH3 domain protein, expressed from the infecting adenovirus (adenovirus (serotype not given)) (UniProt P03246); assay: co-IP
# T1 sequence: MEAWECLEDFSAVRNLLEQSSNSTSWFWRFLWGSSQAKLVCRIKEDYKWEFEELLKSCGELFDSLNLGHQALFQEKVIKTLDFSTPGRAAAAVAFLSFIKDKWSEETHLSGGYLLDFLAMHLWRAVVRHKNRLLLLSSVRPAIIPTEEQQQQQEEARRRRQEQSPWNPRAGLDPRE
# [2] = biological target: T2, wild-type E1B19K expressed from pcDNA.E1B19K (adenovirus (serotype not given)) (UniProt P03246); assay: co-IP; HeLa cells transiently co-transfected with plasmids for wild-type or mutant E1B19K and wild-type (Flag-)Beclin 1; lysates collected 48 h later; IP and immunoblot
# T2 sequence: T1 sequence
# [3] = biological target: Beclin 1 (endogenous) (human (endogenous in HeLa)) (UniProt Q14457); assay: co-IP
substance,measurement,setting,value
Beclin 1 (endogenous) (from UniProt Q14457 1-450),binding,[1],binds
Flag-Beclin 1 (from UniProt Q14457 1-450),binding,[1],binds
same,binding,[2],binds
Bcl-2 (endogenous) (from UniProt P10415 1-239),binding,[3],binds
